The record followed here is publication PMC5057473.

In this assay the target is T1, GFP-tagged TSG (mouse) (UniProt Q5RI75).
T1 sequence: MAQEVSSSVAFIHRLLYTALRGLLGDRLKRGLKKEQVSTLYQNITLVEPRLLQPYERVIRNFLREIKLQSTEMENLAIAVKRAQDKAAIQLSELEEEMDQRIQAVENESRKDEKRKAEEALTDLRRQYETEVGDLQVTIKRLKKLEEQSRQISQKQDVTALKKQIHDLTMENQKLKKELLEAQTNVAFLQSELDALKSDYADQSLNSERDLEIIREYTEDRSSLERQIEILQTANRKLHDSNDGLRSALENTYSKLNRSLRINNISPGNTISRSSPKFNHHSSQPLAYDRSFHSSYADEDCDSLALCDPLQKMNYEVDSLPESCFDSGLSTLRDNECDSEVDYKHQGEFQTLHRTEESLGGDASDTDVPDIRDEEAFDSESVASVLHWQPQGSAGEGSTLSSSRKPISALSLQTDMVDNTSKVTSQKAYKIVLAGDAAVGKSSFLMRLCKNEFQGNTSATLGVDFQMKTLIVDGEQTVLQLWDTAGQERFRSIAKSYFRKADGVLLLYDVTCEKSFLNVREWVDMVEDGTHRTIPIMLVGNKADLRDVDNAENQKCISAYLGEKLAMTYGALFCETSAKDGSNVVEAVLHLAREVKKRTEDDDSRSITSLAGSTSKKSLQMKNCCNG
Put plainly: co-IP; Cos-7 cells transfected with GFP or GFP-TSG; lysate immunoprecipitated with anti-GFP antibody, blotted with anti-actin or anti-GFP.

These are yes or no findings as the source states them, for the method shown. In cells and extracts the contact can be indirect. Binding calls can cover weak binding; strength is not graded here. Sequences can lack the tags named with a protein.

Take actin: the binding entry is “binds”.
